The supplement of paper PMC4749390
Structures can show the parent of a compound that is named as a salt. This is one part of the list. This data set is noisy: repeats of one test often differ as much as different tests do.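 JEG3 cells stably express tetracycline-inducible wild-type human LRH-1, a highly sumoylated nuclear receptor. SUMO-sensitive transcripts APOC3 and MUC1, increased by SUMO-deficient LRH-1 or UBC9 knockdown, were quantified by RT-qPCR relative to TBP and DMSO controls. Primary hits had robust Z-scores above +2 or below -2, before toxicity and TBP filtering.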

Each molecule was assayed on JEG3 expressing hLRH-1 (assay: APOC3 transcript change (ddCt vs TBP and DMSO), Z-score over library; higher = higher APOC3 expression). Details: 10 µM; time (hr): 24.

SMILES	APOC3 transcript change (Z-score)
O=C(O)Cc1ccccc1Nc1c(Cl)cccc1Cl [Diclofenac sodium]	0.65
CC(=O)[C@@]12O[C@](C)(c3ccccc3)O[C@@H]1C[C@H]1[C@@H]3CCC4=CC(=O)CC[C@]4(C)[C@H]3CC[C@@]12C [algestone acetophenide]	0.188
NC(=O)c1cc[n+](CC2=C(C(=O)O)N3C(=O)C(NC(=O)C(c4ccccc4)S(=O)(=O)[O-])C3SC2)cc1 (stereo unspecified) [cefsulodin sodium]	1.59
N#Cc1ccc(C(c2ccc(C#N)cc2)n2cncn2)cc1 [letrozole]	-0.439
CC(CN1c2ccccc2Sc2ccccc21)N(C)C (stereo unspecified) [Promethazine hydrochloride]	-0.51
CCN(CC)CCOc1ccc2c(c1)C(=O)c1cc(OCCN(CC)CC)ccc1-2 [tilorone]	3.62
CC(C)[C@@H]1CC[C@@H](C)C[C@H]1O [(-)-menthol]	-0.268
CC1=C(C(=O)O)N2C(=O)[C@@H](NC(=O)C(N)c3ccccc3)[C@H]2SC1 (stereo partly specified) [cephalexin]	0.665
CCOc1ccc2nc(S(N)(=O)=O)sc2c1 [ethoxzolamide]	0.0405
CCOC(=O)COc1ccc2c(=O)cc(-c3ccccc3)oc2c1 [efloxate]	-1.07
COc1ccccc1OCC(O)CN1CCN(CC(=O)Nc2c(C)cccc2C)CC1 (stereo unspecified) [ranolazine]	0.41
CC(=O)Oc1c(C)cccc1C(=O)O [cresopyrine]	-0.299
N=c1ccn2c(n1)O[C@H]1[C@H](O)[C@@H](CO)O[C@H]12 [ancitabine hydrochloride]	2.12
CO[C@@]1(NC(=O)C2SC(=C(C(N)=O)C(=O)O)S2)C(=O)N2C(C(=O)O)=C(CSc3nnnn3C)CS[C@@H]21 (stereo partly specified) [cefotetan]	-0.0215
CC(=O)N[C@@H](CC(=O)O)C(=O)N[C@@H](CCC(=O)O)C(=O)O [spaglumic acid]	0.317
CCC(=O)O[C@H](CC(=O)O)C[N+](C)(C)C [levocarnitine propionate hydrochloride]	1
CC/C(=C(\c1ccccc1)c1ccc(OCCN(C)C)cc1)c1ccccc1 [Tamoxifen citrate]	1.05
CCCc1nc(C(C)(C)O)c(C(=O)OCc2oc(=O)oc2C)n1Cc1ccc(-c2ccccc2-c2nn[nH]n2)cc1 [olmesartan medoxomil]	0.297
CC(C(=O)O)c1cccc(CC2CCCC2=O)c1 (stereo unspecified) [loxoprofen]	-0.107
CCCCC(CC)C/N=C(N)/N=C(\N)NCCCCCCN/C(N)=N/C(N)=N/CC(CC)CCCC (stereo unspecified) [alexidine hydrochloride]	-0.578
C[C@@H](O)[C@H]1C(=O)N2C(C(=O)O)=C(SCC/N=C/N)C[C@H]12 [imipenem]	0.29
C[C@]12CCC(=O)C=C1CCC1C2[C@@H](O)C[C@@]2(C)C1CC[C@]2(O)C(=O)CO (stereo partly specified) [hydrocortisone]	-0.295
CO[C@H]1C[C@@H]2CC[C@@H](C)[C@@](O)(O2)C(=O)C(=O)N2CCCC[C@H]2C(=O)O[C@H]([C@H](C)C[C@@H]2CC[C@@H](O)[C@H](OC)C2)CC(=O)[C@H](C)/C=C(\C)[C@@H](O)[C@@H](OC)C(=O)[C@H](C)C[C@H](C)/C=C/C=C/C=C/1C [sirolimus]	0.134
CN[C@@H]1[C@H](OC2[C@H](O[C@H]3[C@H](O)[C@@H](O)[C@H](N=C(N)N)[C@@H](O)[C@@H]3N=C(N)N)O[C@@H](C)[C@]2(O)C=O)O[C@@H](CO)[C@H](O)[C@H]1O (stereo partly specified) [streptomycin sulfate]	-1.02

SMILES	APOC3 transcript change (Z-score)
C#C[C@]1(O)CC[C@H]2[C@@H]3CCc4cc(OC)ccc4[C@H]3CC[C@@]21C [mestranol]	0.27
Cc1c(C(N)=O)cc([N+](=O)[O-])cc1[N+](=O)[O-] [dinitolmide]	0.214
CCN1CCCC1CNC(=O)c1cc(S(=O)(=O)CC)c(N)cc1OC (stereo unspecified) [amisulpride]	-0.99
Cc1nc(C)c(Cl)c(O)c1Cl [clopidol]	-0.0783
Nc1nc(F)nc2c1ncn2[C@@H]1O[C@H](COP(=O)(O)O)[C@@H](O)[C@@H]1O [fludarabine phosphate]	-0.2
C#C[C@]1(O)CCC2C3CCC4=CC(=O)CC[C@@H]4C3CC[C@@]21C (stereo partly specified) [norethindrone]	0.355
NC(N)=O [urea]	0.264
CNCC[C@H](Oc1cccc2ccccc12)c1cccs1 [duloxetine hydrochloride]	0.601
N[C@H](Cc1ccccc1)C(=O)O [d-phenylalanine]	0.798
CNC[C@H](O)c1cccc(O)c1 [Phenylephrine hydrochloride]	-0.647
COc1ccc2cc(CCC(C)=O)ccc2c1 [nabumetone]	1.02
COCCO/C(O)=C1\C(C)=NC(C)=C(C(=O)OC(C)C)C1c1cccc([N+](=O)[O-])c1 (stereo unspecified) [Nimodipine]	0.594
CC(/N=C(\NC#N)Nc1ccncc1)C(C)(C)C (stereo unspecified) [Pinacidil]	0.587
CC(C)(CO)[C@@H](O)C(=O)NCCCO [dexpanthenol]	-0.381
OC(CCN1CCCCC1)(c1ccccc1)C1CC2C=CC1C2 (stereo unspecified) [biperiden]	-0.742
CCOC(=O)[C@H](CCc1ccccc1)N[C@@H](C)C(=O)N1[C@H](C(=O)O)C[C@H]2CCCC[C@@H]21 [trandolapril]	0.333
CCC(c1ccc(O)cc1)C(CC)c1ccc(O)cc1 (stereo unspecified) [hexestrol]	0.33
CC(C[N+](C)(C)C)OC(N)=O (stereo unspecified) [Bethanechol chloride]	0.0506
C[C@H]1[C@H](NC(=O)/C(=N\OC(C)(C)C(=O)O)c2csc(N)n2)C(=O)N1S(=O)(=O)O [aztreonam]	0.734
CCCCCCCCCCCCCCCC(=O)OCC(O)[C@H]1OC(O)=C(O)C1=O (stereo partly specified) [ascorbyl palmitate]	-0.0886
CC(=O)N1CCN(c2ccc(OCC3CO[C@](Cn4ccnc4)(c4ccc(Cl)cc4Cl)O3)cc2)CC1 (stereo partly specified) [ketoconazole]	-0.352
CO/N=C1\CN(c2nc3c(cc2F)c(=O)c(C(=O)O)cn3C2CC2)CC1CN (stereo unspecified) [gemifloxacin mesylate]	0.377
O=C(Nc1ccc(C(=O)O)c(O)c1)c1ccccc1 [benzoylpas]	0.363
c1ccc(C2CN3CCSC3=N2)cc1 (stereo unspecified) [tetramizole hydrochloride]	-3.05

3 records picked at random from those above, as already listed:
SMILES	APOC3 transcript change (Z-score)
NC(N)=O [urea]	0.264
CC1=C(C(=O)O)N2C(=O)[C@@H](NC(=O)C(N)c3ccccc3)[C@H]2SC1 (stereo partly specified) [cephalexin]	0.665
CCCCC(CC)C/N=C(N)/N=C(\N)NCCCCCCN/C(N)=N/C(N)=N/CC(CC)CCCC (stereo unspecified) [alexidine hydrochloride]	-0.578

Later entries

SMILES	APOC3 transcript change (Z-score)
C[C@@H]1CN(c2c(F)c(N)c3c(=O)c(C(=O)O)cn(C4CC4)c3c2F)C[C@H](C)N1 [sparfloxacin]	0.113
Nc1c2c(nc3ccccc13)CCCC2 [9-Amino-1,2,3,4-tetrahydroacridine hydrochloride]	1.8
[NH2][Pt]([NH2])([Cl])[Cl] [cisplatin]	0.0393
OC(CCN1CCCCC1)(c1ccccc1)c1ccccc1 [pridinol methanesulfonate]	0.446
CC1(C)S[C@@H]2[C@H](NC(=O)[C@H](C(=O)O)c3cccs3)C(=O)N2[C@H]1C(=O)O [ticarcillin disodium]	1.52
CCC1=C[C@@H]2CN(C1)Cc1c([nH]c3ccccc13)[C@@](C(=O)OC)(c1cc3c(cc1OC)N(C)[C@H]1[C@@](O)(C(=O)OC)[C@H](OC(C)=O)[C@]4(CC)C=CCN5CC[C@]31[C@@H]54)C2 [vinorelbine]	-1.81
OCc1ccccc1 [benzyl alcohol]	-1.3
CN(C)c1ccc2nc3ccc(N(C)C)cc3[s+]c2c1 [methylene blue]	-0.692
CCOC(=O)CCC(=O)O[C@H]1[C@H](O[C@@H]2[C@@H](C)[C@H](O[C@H]3C[C@@](C)(OC)[C@@H](O)[C@H](C)O3)[C@@H](C)C(=O)O[C@H](CC)[C@@](C)(O)[C@H](O)[C@@H](C)C(=O)[C@H](C)C[C@@]2(C)O)O[C@H](C)C[C@@H]1N(C)C [erythromycin ethylsuccinate]	-0.383
O=C1c2ccccc2C(=O)C1c1ccc(Br)cc1 [bromindione]	0.41
Nc1ccc(C(=O)Oc2ccccc2)c(O)c1 [fenamisal]	0.427
COc1ccc2c(c1)c(CC(=O)OCC(=O)O)c(C)n2C(=O)c1ccc(Cl)cc1 [acemetacin]	-1.06
CC(O)Cn1cnc2c1c(=O)n(C)c(=O)n2C (stereo unspecified) [proxyphylline]	0.535
CN(Cc1cc(Br)cc(Br)c1N)C1CCCCC1 [bromhexine hydrochloride]	0.143
Nc1ncnc2c1ncn2[C@@H]1O[C@H](COP(=O)(O)O)[C@@H](O)[C@H]1O [adenosine phosphate]	-0.397
O=c1oc2c(O)c(O)cc3c(=O)oc4c(O)c(O)cc1c4c23 [ellagic acid]	-0.244
CCCc1nc(C)c2c(O)nc(-c3cc(S(=O)(=O)N4CCN(CC)CC4)ccc3OCC)nn12 [vardenafil hydrochloride]	0.8
NC(=O)N/N=C/c1ccc([N+](=O)[O-])o1 [nitrofurazone]	-0.872
CC(C)Cc1ccc(C(C)C(=O)O)cc1 (racemic) [(±)-Ibuprofen]	0.862
CCOc1nc2cccc(C(=O)OCc3oc(=O)oc3C)c2n1Cc1ccc(-c2ccccc2-c2noc(O)n2)cc1 [azilsartan kamedoxomil]	-0.499
C[N+]1(C)CCC(OC(=O)C(O)(c2ccccc2)C2CCCC2)C1 (stereo unspecified) [glycopyrrolate]	0.787
CC(=O)OCC(=O)[C@@]1(O)CC[C@H]2[C@@H]3CCC4=CC(=O)C=C[C@]4(C)[C@@]3(F)[C@@H](O)C[C@@]21C [isoflupredone acetate]	0.578
CCCCC(=O)O[C@]1(C(=O)CO)[C@@H](C)C[C@H]2[C@@H]3CCC4=CC(=O)C=C[C@]4(C)[C@@]3(F)[C@@H](O)C[C@@]21C [betamethasone valerate]	0.649
